# Laboratory results: the supplement of paper PMC8256030
# “And” between values parts separate entries of the source, which are not always exact repeats. Equal entries are not always repeated. Structures can show the parent of a compound that is named as a salt. The list shows a part of the results. Single values are uncertain here, since repeats match poorly.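 HEK293T cells were given each compound shortly before transfection with a reporter in which red mCherry is followed by the SARS-CoV-2 frameshift element and then GFP in the −1 frame, so GFP appears only after frameshifting.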
# Key:
# [1] = test system: SARS-CoV-2 -1 PRF reporter mCherry-FSE-GFP(-1); experiment: mCherry (red) intensity as percent of control; higher = higher upstream reporter expression; conditions: 10 µM; 24 h; HEK293T
# [2] = test system: SARS-CoV-2 -1 PRF reporter mCherry-FSE-GFP(-1); experiment: percent effect, decrease of GFP/mCherry ratio (-1 PRF reporter) relative to controls; higher = stronger frameshift inhibition; conditions: 10 µM; 24 h; HEK293T
Structure (SMILES),mCherry [1],percent effect [2]
C[C@]12CCC(=O)C=C1C=C[C@@H]1[C@@H]2CC[C@@]2(C)[C@H]1CC[C@@]21CCC(=O)O1 [Canrenone],85.5%,-7.14%
CNCCC(Oc1ccccc1OC)c1ccccc1 (centres undefined) [Nisoxetine·HCl],77.5%,-1.37%
CN(C)C(=O)CCS[C@H](SCCC(=O)O)c1cccc(/C=C/c2ccc3ccc(Cl)cc3n2)c1 [verlukast],72.9%,-0.788%
CCCCCC(=O)O[C@]1(C(C)=O)CC[C@H]2[C@@H]3CCC4=CC(=O)CC[C@]4(C)[C@H]3CC[C@@]21C [hydroxyprogesterone caproate],81.4% and 87.1%,-1.4% and -6.54%
Nc1nc2c(ncn2COCCO)c(=O)[nH]1 [Acycloguanosine],49.4%,-7.51%
C#CCN[C@@H]1CCc2ccccc21 [rasagiline],101%,-1.79%
CCCN1CCCC[C@H]1C(=O)Nc1c(C)cccc1C [ropivacaine],111%,4.36%
CC(NNC(=O)c1ccccc1)c1ccccc1 (centres undefined) [benmoxin],71.5%,-14.2%
C[N+](C)(C)CCOP(=O)(O)OP(=O)([O-])OC[C@H]1O[C@@H](n2ccc(N)nc2=O)[C@H](O)[C@@H]1O,118%,2.52%
CN[C@H](CC(C)C)C(=O)N[C@H]1C(=O)N[C@@H](CC(N)=O)C(=O)N[C@H]2C(=O)N[C@H]3C(=O)N[C@H](C(=O)N[C@H](C(=O)O)c4cc(O)cc(O)c4-c4cc3ccc4O)[C@H](O)c3ccc(c(Cl)c3)Oc3cc2cc(c3O[C@@H]2O[C@H](CO)[C@@H](O)[C@H](O)[C@H]2O[C@H]2C[C@](C)(N)[C@H](O)[C@H](C)O2)Oc2ccc(cc2Cl)[C@H]1O,118%,-12.8%
NS(=O)(=O)c1cc2c(cc1Cl)NC(c1ccccc1)NC2=O (centres undefined) [fenquizone],71%,-6.3%
CS(=O)(=O)Nc1cc2occ(NC=O)c(=O)c2cc1Oc1ccccc1 [iguratimod],92.9%,-2.2%
CC(C)(C)NCC(O)CSc1nc(-c2ccc(C(N)=O)s2)cs1 (centres undefined) [arotinolol],112%,-0.0991%
NC[C@H](O)c1ccc(O)c(O)c1,74.7%,-2.6%
CN(C)CCOC(c1ccccc1)c1ccc(Br)cc1 (centres undefined) [Bromodiphenhydramine],92.9%,-5.91%
C[n+]1cc2c3c(ccc2c2ccc4cc5c(cc4c21)OCO5)OCO3,16.7%,-0.394%
C[C@]12CCC3=C4CCC(=O)C=C4CC[C@H]3[C@@H]1CC[C@@]2(O)CC#N [dienogest],102%,0.324%
COC(=O)Nc1nc2cc([S+]([O-])c3ccccc3)ccc2[nH]1 (centres undefined),120%,1.04%
Cc1ccsc1/C=C/C1=NCCCN1C [morantel],58.2%,-6.27%
CN(C)C(=O)Cn1cc(-c2ccc(-c3cncc4ccccc34)cc2)cn1,32.9%,-1.06%
O=C(NN1CCCCCC1)NS(=O)(=O)c1ccc(Cl)cc1 [glypinamide],97.8%,-0.896%
OCc1ccccc1 [benzyl alcohol],119%,-1.61%
O=C(C(Cl)Cl)N(CCO)Cc1ccc(Oc2ccc([N+](=O)[O-])cc2)cc1 [clefamide],32.4%,-14.6%
COC(=O)Nc1nc2cc(C(=O)c3ccccc3)ccc2[nH]1,30.5%,-6.1%

# No new results follow: an excerpt of the list.
Structure (SMILES),mCherry [1],percent effect [2]
CNCCC(Oc1ccccc1OC)c1ccccc1 (centres undefined) [Nisoxetine·HCl],77.5%,-1.37%
CN(C)C(=O)CCS[C@H](SCCC(=O)O)c1cccc(/C=C/c2ccc3ccc(Cl)cc3n2)c1 [verlukast],72.9%,-0.788%
CCCCCC(=O)O[C@]1(C(C)=O)CC[C@H]2[C@@H]3CCC4=CC(=O)CC[C@]4(C)[C@H]3CC[C@@]21C [hydroxyprogesterone caproate],81.4% and 87.1%,-1.4% and -6.54%
Nc1nc2c(ncn2COCCO)c(=O)[nH]1 [Acycloguanosine],49.4%,-7.51%
C#CCN[C@@H]1CCc2ccccc21 [rasagiline],101%,-1.79%
CCCN1CCCC[C@H]1C(=O)Nc1c(C)cccc1C [ropivacaine],111%,4.36%
CC(NNC(=O)c1ccccc1)c1ccccc1 (centres undefined) [benmoxin],71.5%,-14.2%
C[N+](C)(C)CCOP(=O)(O)OP(=O)([O-])OC[C@H]1O[C@@H](n2ccc(N)nc2=O)[C@H](O)[C@@H]1O,118%,2.52%
CN[C@H](CC(C)C)C(=O)N[C@H]1C(=O)N[C@@H](CC(N)=O)C(=O)N[C@H]2C(=O)N[C@H]3C(=O)N[C@H](C(=O)N[C@H](C(=O)O)c4cc(O)cc(O)c4-c4cc3ccc4O)[C@H](O)c3ccc(c(Cl)c3)Oc3cc2cc(c3O[C@@H]2O[C@H](CO)[C@@H](O)[C@H](O)[C@H]2O[C@H]2C[C@](C)(N)[C@H](O)[C@H](C)O2)Oc2ccc(cc2Cl)[C@H]1O,118%,-12.8%
NS(=O)(=O)c1cc2c(cc1Cl)NC(c1ccccc1)NC2=O (centres undefined) [fenquizone],71%,-6.3%
CS(=O)(=O)Nc1cc2occ(NC=O)c(=O)c2cc1Oc1ccccc1 [iguratimod],92.9%,-2.2%
CC(C)(C)NCC(O)CSc1nc(-c2ccc(C(N)=O)s2)cs1 (centres undefined) [arotinolol],112%,-0.0991%
NC[C@H](O)c1ccc(O)c(O)c1,74.7%,-2.6%
CN(C)CCOC(c1ccccc1)c1ccc(Br)cc1 (centres undefined) [Bromodiphenhydramine],92.9%,-5.91%
C[n+]1cc2c3c(ccc2c2ccc4cc5c(cc4c21)OCO5)OCO3,16.7%,-0.394%
C[C@]12CCC3=C4CCC(=O)C=C4CC[C@H]3[C@@H]1CC[C@@]2(O)CC#N [dienogest],102%,0.324%
COC(=O)Nc1nc2cc([S+]([O-])c3ccccc3)ccc2[nH]1 (centres undefined),120%,1.04%
Cc1ccsc1/C=C/C1=NCCCN1C [morantel],58.2%,-6.27%
CN(C)C(=O)Cn1cc(-c2ccc(-c3cncc4ccccc34)cc2)cn1,32.9%,-1.06%

# Later entries.

Structure (SMILES),mCherry [1],percent effect [2]
CC(C)c1cc(C(C)C)c(CC(=O)NS(=O)(=O)Oc2c(C(C)C)cccc2C(C)C)c(C(C)C)c1 [avasimibe],57.7%,-11.6%
CC(C)C[C@H]1C(=O)O[C@H](Cc2ccc(N3CCOCC3)cc2)C(=O)N(C)[C@@H](CC(C)C)C(=O)O[C@H](C)C(=O)N(C)[C@@H](CC(C)C)C(=O)O[C@H](Cc2ccc(N3CCOCC3)cc2)C(=O)N(C)[C@@H](CC(C)C)C(=O)O[C@H](C)C(=O)N1C [emodepside],93.7%,-4.09%
CC(C)CCC[C@@H](C)[C@H]1CC(=O)C2=C3CC[C@H]4C[C@@H](O)CC[C@]4(C)[C@H]3CC[C@@]21C [colestolone],119%,-1.6%
Cc1nc2n(c(=O)c1CCN1CCC(c3noc4cc(F)ccc34)CC1)CCCC2 [risperidone],104% and 83.4%,-3.68% and -2.89%
NCCCC(=O)O,102%,-0.122%
N#Cc1ccc(C2CCCc3cncn32)cc1 (centres undefined) [fadrozole],107%,-0.57%
O=C(O)c1ccccc1Nc1cccc(Cl)c1Cl [clofenamic acid],71%,-13.6%
Cc1cccc(Oc2cnc(=O)[nH]c2)c1 [tolimidone],101%,-1.41%
COc1ccc(-c2cc(C(F)F)nn2-c2ccc(S(N)(=O)=O)cc2)cc1F [deracoxib],97.2%,-5.89%
CC1=C(C/C=C(\C)CCC[C@H](C)CCC[C@H](C)CCCC(C)C)C(=O)c2ccccc2C1=O [phytomenadione],79.2%,-12.1%
Cc1cc(/C=C/C#N)cc(C)c1Nc1ccnc(Nc2ccc(C#N)cc2)n1 [rilpivirine],68.4%,-9.83%
CC(C)(CO)C(O)C(=O)NCCC(=O)O (centres undefined),124%,2.95%
CCOc1ccc(/C=C2\NCCc3cc(OCC)c(OCC)cc32)cc1OCC [Drotin],85.8%,-11.4%
CC(=O)N=c1sc(S(N)(=O)=O)nn1C,117%,-0.685%
Nc1c(Br)cc(Br)cc1CN[C@H]1CC[C@H](O)CC1 [ambroxol],95% and 89.7%,-0.621% and 3.83%
CC1(C)S[C@@H]2[C@H](NC(=O)[C@H](NC(=O)N3CCNC3=O)c3ccccc3)C(=O)N2[C@H]1C(=O)O [Azlin],107% and 100%,-4.37% and -2%
CN1CCc2c(c3ccccc3n2Cc2ccccc2)C1,108%,1.01%
CCOC(=O)[C@H](CCc1ccccc1)N[C@@H](C)C(=O)N1CC2(C[C@H]1C(=O)O)SCCS2 [Spirapril],95.5%,0.209%
COc1c(N2C[C@@H]3CCCN[C@@H]3C2)c(F)cc2c(=O)c(C(=O)O)cn(C3CC3)c12 [moxifloxacin],96.2%,-1.71%
CNC[C@H](O)[C@@H](O)[C@H](O)[C@H](O)CO [Meglumine],104%,0.85%
CN[C@@H]1[C@H](O[C@H]2[C@H](O[C@H]3[C@H](O)[C@@H](O)[C@H](N=C(N)N)[C@@H](O)[C@@H]3N=C(N)N)O[C@@H](C)[C@]2(O)CO)O[C@@H](CO)[C@H](O)[C@H]1O,109%,-9.13%
NC(=O)c1ccccc1O [salicylamide],92.9%,-1.55%
CCOC(CN1CCN(CC(C)C(=O)c2ccccc2)CC1)c1ccccc1 (centres undefined) [eprazinone],115%,-7.11%
COc1ccccc1O,92.5%,-3.62%

Structure (SMILES),mCherry [1],percent effect [2]
CCCCCC(C)N (centres undefined) [tuaminoheptane],112%,-2.9%
C#C[C@]1(O)CC[C@H]2[C@@H]3CCC4=CC(=NO)CC[C@@H]4[C@H]3CC[C@@]21CC (mixture of isomers) [norelgestromin],76.3%,4.08%
Cc1ncc([N+](=O)[O-])n1CC(C)O (centres undefined) [secnidazole],110% and 86.8%,-0.00663% and -0.767%
CC(Oc1c(Cl)cccc1Cl)C1=NCCN1 (centres undefined),90.7%,-1.23%
CC(C)COC(=O)c1ccc(N)cc1 [isobutamben],82.3%,-1.83%
NCC[C@H](O)C(=O)N[C@@H]1C[C@H](N)[C@@H](O[C@H]2O[C@H](CN)[C@@H](O)[C@H](O)[C@H]2O)[C@H](O)[C@H]1O[C@H]1O[C@H](CO)[C@@H](O)[C@H](N)[C@H]1O [amikacin],85.5% and 96.8%,-0.988% and -1.45%
C[C@H]1O[C@@H](n2cc(F)c(=O)[nH]c2=O)[C@H](O)[C@@H]1O [doxifluridine],93.4%,0.593%
CCC(C(=O)OCCOCCN(CC)CC)c1ccccc1 (centres undefined) [butamirate],86.8%,-1.59%
CCCCCCCCCCOc1cc2c(=O)c(C(=O)OCC)c[nH]c2cc1OCC,149%,0.094%
Cc1c(C(=O)NCCO)[n+]([O-])c2ccccc2[n+]1[O-] [olaquindox],71.8%,-4.81%
O=S(=O)(O)c1cc(I)c(O)c2ncccc12 [chiniofon],98.6%,-3.15%
CO/N=C1\C[C@]2(C[C@@H]3C[C@@H](C/C=C(\C)C[C@@H](C)/C=C/C=C4\CO[C@@H]5[C@H](O)C(C)=C[C@@H](C(=O)O3)[C@]45O)O2)O[C@H](/C(C)=C/C(C)C)[C@H]1C,87.8%,4.7%
CCOC(=O)c1cnc2c(cnn2CC)c1NN=C(C)C [etazolate],88.6%,1.57%
CC[C@H]1OC(=O)[C@H](C)C(=O)[C@H](C)[C@@H](O[C@@H]2O[C@H](C)C[C@H](N(C)C)[C@H]2O)[C@](C)(OC)C[C@@H](C)C(=O)[C@H](C)[C@H]2N(CCCCn3cnc(-c4cccnc4)c3)C(=O)O[C@]12C [Ketek],115%,-16.3%
CC(C)(C)NC[C@H](O)COc1ccccc1C1CCCC1,98.7%,-11%
C(=C\c1ccccc1)/CN1CCN(C(c2ccccc2)c2ccccc2)CC1 [Stugeron],110%,-2.77%
C=CCc1ccccc1OCC(O)CNC(C)C (centres undefined) [alprenolol],103%,-2.92%
Clc1ccc(Cn2c(CN3CCCC3)nc3ccccc32)cc1 [clemizole],108%,-6.97%
CCn1nc(C(=O)O)c(=O)c2cc3c(cc21)OCO3 [cinoxacin],142%,-3.79%
CC(C)CC(N)=O,100%,-0.342%
Oc1ccc(Nc2ccnc3cc(Cl)ccc23)cc1CN1CCCC1 [amopyroquine],34.4%,3.14%
CCCCCNCC(N)=O [milacemide],108%,-11.2%
CCOC(=O)[C@@H](N)Cc1ccc(O)c(O)c1 [etilevodopa],107%,-2.81%
C=Cc1c(C)c2cc3[nH]c(cc4nc(cc5nc(cc1[nH]2)C(C)=C5CCC(=O)O)C(CCC(=O)O)=C4C)c(C)c3C=C,121%,-3.3%
